The target in the assay is mature human activin A (human) (UniProt P08476). Description: BLI.

Amino acid sequences for entries named in this document (tags omitted). Residues count along the entry.
UniProt P08476, 311-426: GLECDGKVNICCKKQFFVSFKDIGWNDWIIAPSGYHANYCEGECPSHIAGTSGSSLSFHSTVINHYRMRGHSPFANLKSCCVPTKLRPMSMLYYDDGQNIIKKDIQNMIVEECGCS
UniProt P19883, 30-317: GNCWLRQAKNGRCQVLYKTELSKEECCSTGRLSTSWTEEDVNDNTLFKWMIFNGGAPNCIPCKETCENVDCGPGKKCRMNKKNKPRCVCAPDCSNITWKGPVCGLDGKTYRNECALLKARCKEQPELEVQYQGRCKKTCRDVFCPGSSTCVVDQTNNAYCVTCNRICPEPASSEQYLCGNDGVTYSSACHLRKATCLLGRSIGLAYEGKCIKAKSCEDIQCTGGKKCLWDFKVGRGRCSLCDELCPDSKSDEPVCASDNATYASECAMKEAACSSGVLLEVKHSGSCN

Results are given in words; binding and its absence hold for the method and conditions named. Some results given as binding are weak or reduced against the parent protein; the word gives no strength.

In the case of “follistatin-288 (from UniProt P19883-2 30-317)”, the binding result is recorded as “binds”.

These data come from paper doi:10.1101/2025.06.13.659133.
